According to paper doi:10.1101/2025.10.31.25337980:
Results are given in words; binding and its absence hold for the method and conditions named. In cells and extracts the contact can be indirect. These calls come from enrichment with a bait or labelling near it, and not all partners need be listed.

The chains behind the UniProt entries cited, without tags or fusion partners.
UniProt P55258: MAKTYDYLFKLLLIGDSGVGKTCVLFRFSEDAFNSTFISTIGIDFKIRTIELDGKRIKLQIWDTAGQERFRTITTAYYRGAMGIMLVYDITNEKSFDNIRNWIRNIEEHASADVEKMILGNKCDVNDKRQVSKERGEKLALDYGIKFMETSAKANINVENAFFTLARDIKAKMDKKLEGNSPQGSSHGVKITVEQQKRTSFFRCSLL

Target: T1, TBC1D8 (mouse (endogenous in mouse spleen)) (UniProt Q9Z1A9)
T1 sequence: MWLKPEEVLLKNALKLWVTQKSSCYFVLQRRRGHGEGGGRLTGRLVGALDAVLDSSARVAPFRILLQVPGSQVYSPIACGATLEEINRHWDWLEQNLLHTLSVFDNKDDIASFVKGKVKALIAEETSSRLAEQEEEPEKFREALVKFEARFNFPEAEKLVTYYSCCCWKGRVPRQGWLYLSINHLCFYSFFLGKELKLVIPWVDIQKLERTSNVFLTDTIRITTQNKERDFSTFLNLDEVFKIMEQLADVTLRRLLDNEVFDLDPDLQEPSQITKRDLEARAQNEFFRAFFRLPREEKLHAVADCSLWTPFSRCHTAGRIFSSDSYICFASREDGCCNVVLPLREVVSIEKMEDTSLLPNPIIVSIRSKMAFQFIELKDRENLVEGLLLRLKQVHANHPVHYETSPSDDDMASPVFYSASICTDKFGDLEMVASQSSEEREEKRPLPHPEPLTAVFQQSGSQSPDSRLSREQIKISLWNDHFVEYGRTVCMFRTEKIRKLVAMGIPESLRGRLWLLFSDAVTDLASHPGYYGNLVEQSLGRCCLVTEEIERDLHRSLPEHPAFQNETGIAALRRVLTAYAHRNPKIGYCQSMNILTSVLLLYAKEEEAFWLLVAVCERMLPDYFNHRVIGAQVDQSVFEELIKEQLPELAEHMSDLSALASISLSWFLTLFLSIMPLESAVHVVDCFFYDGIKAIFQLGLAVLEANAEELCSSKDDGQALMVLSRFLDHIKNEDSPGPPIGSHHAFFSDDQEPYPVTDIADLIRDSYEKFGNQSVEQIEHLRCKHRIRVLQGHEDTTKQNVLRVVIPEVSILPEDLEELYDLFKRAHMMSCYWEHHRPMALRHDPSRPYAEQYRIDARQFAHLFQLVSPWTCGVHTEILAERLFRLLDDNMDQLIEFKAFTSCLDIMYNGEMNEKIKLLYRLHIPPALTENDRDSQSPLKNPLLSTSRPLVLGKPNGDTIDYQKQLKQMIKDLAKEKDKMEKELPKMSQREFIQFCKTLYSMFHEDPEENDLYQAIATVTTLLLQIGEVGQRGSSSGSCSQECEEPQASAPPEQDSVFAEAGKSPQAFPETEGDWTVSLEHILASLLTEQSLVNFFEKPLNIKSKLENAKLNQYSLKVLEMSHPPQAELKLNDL
Test: affinity purification with mass spectrometry

RAB8A (from UniProt P55258 1-207)
binding: binds
